Test results: patent US10179779B2, “Polymorph forms” (RaQualia Pharma Inc., priority 2012, dated 2019)
Some results were stated once for a whole list of compounds, not compound by compound.

Assay: Hygroscopicity study by dynamic vapor sorption (DVS) analysis
Assay type: physicochemical
Conditions: under 95% RH at 25° C.
Procedure: Hygroscopicity study is performed using Surface Measurement Systems DVS-1. The sample is placed on a microbalance in the instrument and the weight change during the sorption/desorption cycle at 25° C. is monitored. One of the sorption/desorption programs consists of a sorption scan from 0 to 95% relative humidity (RH) and a desorption scan from 95 to 10% RH. The other consists of a sorption scan from 40 to 95% RH and desorption scan from 95 to 0% RH, followed by a second sorption scan from 0 to 40% RH. Both programs are carried out at 5% RH increments and the sample is allowed to equilibrate for 360 minutes or until equilibration had been attained at each step. At the end of the DVS experiment the sample is measured by PXRD.
In the hygroscopicity study by dynamic vapor sorption (DVS) analysis, both Polymorph Form III and Polymorph Form V absorb less than 1.2 wt % under 95% relative humidity (RH) at 25° C. On the other hand, the white solid disclosed in the prior art WO2006/090224 and Polymorph Form I absorb 15 wt % or 14 wt % of water under 95% RH at 25° C.

SMILES	water absorbed
O=C(O)C1(CN2CCC(COc3noc4cccc(OCC(F)(F)F)c34)CC2)CCOCC1 [Polymorph Form III, 4-{[4-({[4-(2,2,2-trifluoroethoxy)-1,2-benzisoxazol-3-yl]oxy}methyl)piperidin-1-yl]methyl}-tetrahydro-2H-pyran-4-carboxylic acid]	less than 1.2 wt %
O=C(O)C1(CN2CCC(COc3noc4cccc(OCC(F)(F)F)c34)CC2)CCOCC1 [Polymorph Form V, 4-{[4-({[4-(2,2,2-trifluoroethoxy)-1,2-benzisoxazol-3-yl]oxy}methyl)piperidin-1-yl]methyl}-tetrahydro-2H-pyran-4-carboxylic acid]	less than 1.2 wt %
